The values below come from patent US20230303648A1 (OSE IMMUNOTHERAPEUTICS, published 2023).

Amino acid sequences for entries named in this document (tags omitted). A change or cut given only in a name is not applied to a line headed by its entry. Residues count along the entry.
UniProt Q15116, residues 25-167: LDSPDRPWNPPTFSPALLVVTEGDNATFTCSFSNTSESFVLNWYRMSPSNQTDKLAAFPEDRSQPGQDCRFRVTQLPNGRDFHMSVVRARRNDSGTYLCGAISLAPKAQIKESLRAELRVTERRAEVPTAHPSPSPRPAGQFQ

The assay has as its target recombinant human PD-1 (rPD1; Sino Biologicals, reference 10377-H08H) (human) (UniProt Q15116). As to the kind of experiment: ELISA, recombinant human PD-1 immobilised, anti-human Fc-peroxidase, TMB.

These are yes or no findings as the source states them, for the method shown. Some entries that bind do so weakly or less than the wild type.

B1: anti-PD1*2 (control antibody without any IL7) (antibody, IgG4, V domains shown)
VH: QIQLVQSGSELKKPGASVKVSCKASGYTFTHYAMNWVRQAPGQGLEWMGWINTNTGEPTYAQGFTGRFVFSLDTSVSTAYLQISSLKAEDTAVYYCAREREPGMDNWGQGTLVTVSS
VL: DVVMTQSPLSLPVTLGQPASISCRSSQSLVHANTNTYLEWYQQRPGQSPRLLIYKVSNRFSGVPDRFSGSGSGTDFTLKISRVEAEDVGVYYCFQGTHVPNTFGQGTKLEIKR
notes: two anti PD-1 arms
In the case of B1, the binding entry is listed as “binds”.
